No constants are given. Whether binding was seen depends on the method and setting. In cells and extracts the contact can be indirect. Some entries that bind do so weakly or less than the wild type.
T1: XBP1s (spliced X-box binding protein 1), expressed from a plasmid (UniProt P17861)
T1 sequence (looked up): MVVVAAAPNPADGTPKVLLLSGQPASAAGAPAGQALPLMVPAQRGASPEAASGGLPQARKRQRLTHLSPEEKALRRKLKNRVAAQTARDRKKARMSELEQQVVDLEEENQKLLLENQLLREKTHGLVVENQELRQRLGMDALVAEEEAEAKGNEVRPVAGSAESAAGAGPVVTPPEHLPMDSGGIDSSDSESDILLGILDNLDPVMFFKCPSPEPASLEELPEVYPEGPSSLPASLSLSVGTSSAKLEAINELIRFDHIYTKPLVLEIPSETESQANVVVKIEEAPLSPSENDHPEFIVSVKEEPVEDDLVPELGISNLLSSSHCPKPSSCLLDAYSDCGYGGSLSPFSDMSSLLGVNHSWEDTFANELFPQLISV

The chains behind the UniProt entries cited, without tags or fusion partners.
UniProt Q16665: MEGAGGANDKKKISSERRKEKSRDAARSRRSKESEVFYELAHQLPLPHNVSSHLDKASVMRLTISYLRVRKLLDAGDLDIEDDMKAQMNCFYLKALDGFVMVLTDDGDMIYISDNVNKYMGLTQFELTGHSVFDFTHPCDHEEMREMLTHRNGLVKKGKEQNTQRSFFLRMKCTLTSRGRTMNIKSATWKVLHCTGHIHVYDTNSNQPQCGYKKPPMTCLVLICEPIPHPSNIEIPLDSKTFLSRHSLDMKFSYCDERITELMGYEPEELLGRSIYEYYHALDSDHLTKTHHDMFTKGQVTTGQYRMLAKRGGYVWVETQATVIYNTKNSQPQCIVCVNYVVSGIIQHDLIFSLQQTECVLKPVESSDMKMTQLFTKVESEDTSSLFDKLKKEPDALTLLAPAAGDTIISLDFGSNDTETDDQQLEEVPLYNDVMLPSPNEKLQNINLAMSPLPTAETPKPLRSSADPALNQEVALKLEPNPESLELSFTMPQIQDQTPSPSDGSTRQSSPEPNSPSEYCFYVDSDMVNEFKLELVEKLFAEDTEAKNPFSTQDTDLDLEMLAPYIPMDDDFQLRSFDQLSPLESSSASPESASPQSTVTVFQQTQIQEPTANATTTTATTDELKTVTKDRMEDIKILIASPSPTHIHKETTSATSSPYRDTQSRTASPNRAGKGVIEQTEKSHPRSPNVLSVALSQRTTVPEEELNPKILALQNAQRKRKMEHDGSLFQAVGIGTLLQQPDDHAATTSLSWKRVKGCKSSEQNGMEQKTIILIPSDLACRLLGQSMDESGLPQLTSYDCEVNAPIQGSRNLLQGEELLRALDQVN


Assays:
[1] = target: T1, XBP1s (spliced X-box binding protein 1), expressed from a plasmid; assay: co-immunoprecipitation with M2 anti-FLAG antibody from 293T cell extracts (hypoxia), western blot
[2] = target: endogenous HIF1α in nuclear extracts of MDA-MB-231 and Hs578T cells (human) (UniProt Q16665); assay: title of the legend of FIG. 5 (co-immunoprecipitation panels B, C, M)
[3] = target: endogenous HIF1α in nuclear extracts of MDA-MB-231 and Hs578T cells (human) (UniProt Q16665); assay: summary of the co-immunoprecipitation, ChIP and reporter experiments of Example 6
[4] = target: endogenous HIF1α in nuclear extracts of MDA-MB-231 and Hs578T cells (human) (UniProt Q16665); assay: endogenous co-immunoprecipitation from nuclear extracts of MDA-MB-231 and Hs578T cells (tunicamycin, 0.1% O2), western blot

| binding [1] | binding [2] | binding [3] | binding [4] | Molecule |
| --- | --- | --- | --- | --- |
| binds |  |  |  | FLAG-tagged HIF1α (hypoxia-inducible factor 1α), co-expressed in 293T cells (from UniProt Q16665 1-826) |
|  | binds | binds | binds | endogenous XBP1 (spliced form, XBP1s) in nuclear extracts of MDA-MB-231 and Hs578T cells (protein, human, UniProt P17861-2 1-376, looked up) MVVVAAAPNPADGTPKVLLLSGQPASAAGAPAGQALPLMVPAQRGASPEAASGGLPQARKRQRLTHLSPEEKALRRKLKNRVAAQTARDRKKARMSELEQQVVDLEEENQKLLLENQLLREKTHGLVVENQELRQRLGMDALVAEEEAEAKGNEVRPVAGSAESAAGAGPVVTPPEHLPMDSGGIDSSDSESDILLGILDNLDPVMFFKCPSPEPASLEELPEVYPEGPSSLPASLSLSVGTSSAKLEAINELIRFDHIYTKPLVLEIPSETESQANVVVKIEEAPLSPSENDHPEFIVSVKEEPVEDDLVPELGISNLLSSSHCPKPSSCLLDAYSDCGYGGSLSPFSDMSSLLGVNHSWEDTFANELFPQLISV |
